# The whole screen tested about 220,000 compounds, of which about 2,400 (1.1%) were called active. Inconclusive results, whose numbers are uncertain, are shown with a selection of clear calls. Calls follow the shape of the dose curve; as a rule, active = well fitted inhibition curve with a large enough effect; inconclusive = small, poorly fitted or top-dose-only effect, or effect the other way; inactive = no such curve, though single readings can be large or run the other way. A potency beside an inconclusive call is a rough fit, not a confirmed value.
# Test: qHTS Multiplex Assay to Identify Dual Action Probes in a Cell Model of Huntington: Aggregate Formation (GFP); also: nearly all actives have a fitted effect of over 60% in size
# Conditions: PC12 HttQ103-GFP aggregates, Acumen cytometry, 40 h; activity change, negative = inhibition: at 46.1 µM (top of the series) unless noted
# In short: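 Quantitative HTS on tebufenozide-induced (100 nM) PC12 cells stably expressing polyQ103 Huntingtin exon 1–GFP. Reduction of bright GFP aggregates, detected by laser scanning cytometry after lysis, identified actives across the titration.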
# % is scaled to controls: 0 for no effect and ±100 for the full control effect; potency is read from the fitted curve at half-maximal effect.
Compound,Potency,"activity change, negative = inhibition"
O=C1CCCC(O)=C1N=Nc1ccc2c(c1)OCO2,"inconclusive: 12.6 µM [activator, single point]",
CCc1nc(SCC(=O)N2c3ccccc3CC2C)c2c(C)c(C)sc2n1 (stereo not given),"inconclusive: 35.5 µM [inhibitor, single point]",
COc1ccc(C(=O)OCCN2CCOCC2)cc1OC,,inactive: -6.29%
Cc1ccc(S(=O)(=O)N(CCCO)CC(O)CON=C2c3ccccc3-c3ccccc32)cc1 (stereo not given),"inconclusive: 35.5 µM [inhibitor, single point]",
CCC(C)n1ncn(-c2ccc(N3CCN(c4ccc(O)cc4)CC3)cc2)c1=O (stereo not given),"inconclusive: 35.5 µM [activator, partial curve, poor fit]",
CC1(C)CC(=O)C(N=Nc2c(Cl)cc(Cl)cc2Cl)=C(O)C1,"inconclusive: 6.31 µM [activator, partial curve]",
Cc1cc(C)c(NC(=O)CN(CC(=O)O)CC(=O)O)c(C)c1Br,,inactive: -3.74%
NC(=O)COC(=O)CCCSc1nc2ccccc2s1,"inconclusive: 0.355 µM [activator, full curve, poor fit]",
CS(=O)(=O)N(CC(=O)N1CCN(c2ccccc2)CC1)c1cc(C(F)(F)F)ccc1Cl,"inconclusive: 35.5 µM [inhibitor, single point]",
Cc1cccc(NC(=S)NC23CN4CN(CN(C4)C2)C3)c1,"inconclusive: 3.98 µM [activator, partial curve]",
Cc1nnc(SC(C)C(=O)NC2CCCc3ccccc32)n1-c1ccccc1 (stereo not given),"inconclusive: 35.5 µM [activator, single point]",
CCc1c(C)nc(SCC(=O)Nc2ccc(Br)cc2)[nH]c1=O,"inconclusive: 12.6 µM [inhibitor, single point]",
CC(NC(=O)Nc1ccccc1)C(c1cccs1)N1CCN(C)CC1 (stereo not given),"inconclusive: 3.98 µM [activator, full curve, poor fit]",
c1ccc(Oc2cccc(CN3CCOCC3)c2)cc1,"inconclusive: 0.316 µM [activator, partial curve, poor fit]",
CC1CCCCN1c1nc2nonc2nc1N1CCCCC1C (stereo not given),,inactive: 4.59%
CNc1nc(-c2ccc3c(c2)CCN3C(=O)c2ccccc2F)cs1,,inactive: 18.6% [at 9.22 µM]
O=C(C(Cc1ccccc1)N1C(=O)c2ccccc2C1=O)N1CCc2ccccc21 (stereo not given),"inconclusive: 5.62 µM [activator, single point]",
COc1ccc(/C=C/CN2CCCC(C(=O)c3ccc(OC)c(F)c3)C2)cc1 (stereo not given),"inconclusive: 35.5 µM [inhibitor, single point]",
CN(C)CCCNS(=O)(=O)c1ccc(Oc2ncc(C(F)(F)F)cc2Cl)cc1,active: 22.4 µM,
O=C(Nc1cc2c3c(c1)C1CCCC1CN3CC1CCCC21)c1ccccc1 (stereo not given),"inconclusive: 25.1 µM [inhibitor, single point]",
O=C(/C=C/c1c(F)cccc1Cl)Nc1ncccn1,"inconclusive: 35.5 µM [inhibitor, single point]",
COc1cc(OC)cc(C(=O)N2c3ccc(F)cc3CCC2C)c1 (stereo not given),"inconclusive: 5.62 µM [inhibitor, single point]",
Cc1ccccc1OCC(=O)NC(=S)Nc1ccc(N2CCOCC2)c(Cl)c1,,inactive: 14.5%

Compound,Potency,"activity change, negative = inhibition"
O=C(CSCCc1ccccn1)Nc1ccccn1,"inconclusive: 2 µM [activator, single point]",
CCN1C(=O)CC(NCc2ccc3c(c2)OCO3)C1=O (stereo not given),,inactive: -5.82%
C#CCNC(=O)C1=C[C@H](c2ccc3c(c2)OCO3)C[C@H](OCc2ccc(CO)cc2)O1,,inactive: 4.75% [at 9.22 µM]
CC/C(=N/O)c1cnnc(SC)n1,"inconclusive: 35.5 µM [inhibitor, single point]",
O=C(c1ccc(Br)s1)N1CCN(C/C=C/c2ccccc2)CC1,"inconclusive: 35.5 µM [inhibitor, single point]",
COCCn1c(SCC(=O)Nc2ccc(NC(=O)c3ccco3)c(OC)c2)nc2ccccc2c1=O,,inactive: -4.36%
COc1ccc(-c2nn(CCC(=O)O)cc2CCC(=O)O)cc1,,inactive: 0.435%
Cc1cc(C)n(C(=O)CCC(=O)NCc2ccccc2)n1,,inactive: 4.37%
N=c1c2c(-c3ccccc3)c(-c3ccccc3)n(Cc3ccco3)c2ncn1Cc1ccccc1,"inconclusive: 35.5 µM [inhibitor, single point]",
CCc1c(C)nc2ncnn2c1Nc1ccc(C)c(C)c1,"inconclusive: 12.6 µM [inhibitor, partial curve]",
COc1ccccc1C(=O)N1CCN(c2nc3cc(C)c(C)cc3cc2C#N)CC1,"inconclusive: 35.5 µM [inhibitor, single point]",
COC(=O)C1=C(N)Oc2cc(C)n(Cc3cccnc3)c(=O)c2C1c1ccccc1OC (stereo not given),,inactive: 8.15%
NC(=O)N1CCN(C(=O)c2ccco2)CC1,"inconclusive: 35.5 µM [inhibitor, single point]",
Cc1ccc(N(C(=O)Cn2nnc3ccccc32)C(C(=O)NCc2ccco2)c2cccnc2)cc1 (stereo not given),"inconclusive: 35.5 µM [inhibitor, single point]",
COc1ccc(C(O)C(CN2CCOCC2)c2ccccc2)cc1F (stereo not given),,inactive: 8.34%
COc1cccc(/C=N/NC(=O)c2[nH]c(C)c(C(=O)N/N=C/c3cccc(OC)c3O)c2C)c1O,"inconclusive: 35.5 µM [inhibitor, single point]",
COc1ccc(OCCCC(=O)Nc2cccc(C(C)=O)c2)cc1,"inconclusive: 0.891 µM [activator, partial curve]",
O=C1c2cccc3c(N4CCCCC4)ccc(c23)C(=O)N1c1ccccc1O,"inconclusive: 31.6 µM [inhibitor, single point]",
O=C(CN1CCN(c2ncccn2)CC1)Nc1ccccc1-n1cccc1,"inconclusive: 35.5 µM [inhibitor, single point]",
O=S(=O)(Nc1nc2ccccc2nc1NCc1ccco1)c1ccc(Cl)cc1,"inconclusive: 15.8 µM [inhibitor, single point]",
Cc1ccccc1C(=O)Nc1cccc(NC(=S)NC(=O)c2cccs2)c1,,inactive: 0.399%
Cc1cc(C(=O)N[C@H](c2ccccc2)[C@@]2(C)C[C@@H]2[C@@H](C)C(=O)Nc2ccc3ccccc3c2)n(C)n1,"inconclusive: 15.8 µM [inhibitor, single point]",

# Molecules from the list above containing a thiophene ring, fused or not (4):
Compound,Potency,"activity change, negative = inhibition"
CCc1nc(SCC(=O)N2c3ccccc3CC2C)c2c(C)c(C)sc2n1 (stereo not given),"inconclusive: 35.5 µM [inhibitor, single point]",
CC(NC(=O)Nc1ccccc1)C(c1cccs1)N1CCN(C)CC1 (stereo not given),"inconclusive: 3.98 µM [activator, full curve, poor fit]",
O=C(c1ccc(Br)s1)N1CCN(C/C=C/c2ccccc2)CC1,"inconclusive: 35.5 µM [inhibitor, single point]",
Cc1ccccc1C(=O)Nc1cccc(NC(=S)NC(=O)c2cccs2)c1,,inactive: 0.399%
